Assay results: paper PMC4859800
Results are given in words; binding and its absence hold for the method and conditions named.

Chains of the proteins cited; added tags and fusions are not shown. Lines headed by an entry give the natural chain unless they say otherwise; changes in a name come on top.
UniProt P53131: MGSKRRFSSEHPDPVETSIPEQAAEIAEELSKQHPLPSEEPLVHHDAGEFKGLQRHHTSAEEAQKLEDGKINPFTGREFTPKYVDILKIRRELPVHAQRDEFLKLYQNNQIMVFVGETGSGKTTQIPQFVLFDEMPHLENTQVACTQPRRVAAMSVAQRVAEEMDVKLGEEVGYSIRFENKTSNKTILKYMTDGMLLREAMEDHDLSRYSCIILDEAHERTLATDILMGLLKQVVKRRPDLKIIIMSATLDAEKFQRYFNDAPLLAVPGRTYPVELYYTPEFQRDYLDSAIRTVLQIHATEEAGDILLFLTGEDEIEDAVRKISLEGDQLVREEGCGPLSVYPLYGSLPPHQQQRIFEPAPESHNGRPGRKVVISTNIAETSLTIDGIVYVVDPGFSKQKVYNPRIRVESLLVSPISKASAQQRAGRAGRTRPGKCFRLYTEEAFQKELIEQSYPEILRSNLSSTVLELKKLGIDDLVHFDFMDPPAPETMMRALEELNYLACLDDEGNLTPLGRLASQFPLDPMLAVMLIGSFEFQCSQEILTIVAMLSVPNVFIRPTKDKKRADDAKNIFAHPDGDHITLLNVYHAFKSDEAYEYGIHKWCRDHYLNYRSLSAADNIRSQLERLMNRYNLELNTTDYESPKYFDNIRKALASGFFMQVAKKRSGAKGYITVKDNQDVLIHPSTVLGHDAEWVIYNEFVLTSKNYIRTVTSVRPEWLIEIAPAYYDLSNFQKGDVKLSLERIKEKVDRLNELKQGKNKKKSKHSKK
UniProt Q03532: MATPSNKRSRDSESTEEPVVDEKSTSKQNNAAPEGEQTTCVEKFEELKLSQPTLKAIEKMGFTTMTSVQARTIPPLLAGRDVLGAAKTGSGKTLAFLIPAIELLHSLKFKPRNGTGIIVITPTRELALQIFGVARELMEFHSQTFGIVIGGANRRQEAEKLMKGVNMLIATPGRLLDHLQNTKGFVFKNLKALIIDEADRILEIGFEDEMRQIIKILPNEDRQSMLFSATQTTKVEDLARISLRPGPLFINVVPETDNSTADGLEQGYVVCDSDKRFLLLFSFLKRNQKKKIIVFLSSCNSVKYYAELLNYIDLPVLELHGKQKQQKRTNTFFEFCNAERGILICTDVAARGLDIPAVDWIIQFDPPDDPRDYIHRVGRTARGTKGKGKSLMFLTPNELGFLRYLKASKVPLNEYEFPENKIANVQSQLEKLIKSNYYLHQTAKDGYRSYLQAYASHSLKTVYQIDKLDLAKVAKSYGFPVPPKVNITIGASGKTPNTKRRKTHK

Assays:
Experiment in all cases: two-hybrid; array-based Y2H matrix; preys in pACT2 (PJ69-4a) mated against 23 baits in pAS2-1 (PJ69-4α); growth on SD-Leu-Trp-His + 6 mM 3-AT greater than the negative control after 2 weeks
[1] = target: T1, Cic1 (Y2H bait, pAS2-1) (S. cerevisiae) (UniProt P38779)
T1 sequence: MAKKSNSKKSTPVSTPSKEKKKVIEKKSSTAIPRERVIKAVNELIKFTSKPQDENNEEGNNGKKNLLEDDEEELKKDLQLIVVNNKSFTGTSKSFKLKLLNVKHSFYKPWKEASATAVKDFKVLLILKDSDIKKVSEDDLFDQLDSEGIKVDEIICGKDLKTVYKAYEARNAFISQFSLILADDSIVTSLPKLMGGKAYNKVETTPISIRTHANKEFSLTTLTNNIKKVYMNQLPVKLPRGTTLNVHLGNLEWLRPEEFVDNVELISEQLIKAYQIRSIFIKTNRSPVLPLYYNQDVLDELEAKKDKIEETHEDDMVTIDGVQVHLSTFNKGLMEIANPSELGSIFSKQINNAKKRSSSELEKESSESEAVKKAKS

[2] = target: T2, Nsa2 (Y2H bait, pAS2-1) (S. cerevisiae) (UniProt P40078)
T2 sequence: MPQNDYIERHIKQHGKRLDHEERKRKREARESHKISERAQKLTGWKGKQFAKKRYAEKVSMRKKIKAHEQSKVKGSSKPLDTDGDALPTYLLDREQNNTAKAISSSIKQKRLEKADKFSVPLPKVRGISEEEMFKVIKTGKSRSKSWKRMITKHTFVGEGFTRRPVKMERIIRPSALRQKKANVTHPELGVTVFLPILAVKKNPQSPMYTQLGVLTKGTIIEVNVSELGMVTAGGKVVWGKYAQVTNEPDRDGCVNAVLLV

[3] = target: Prp43 (Y2H bait, pAS2-1) (S. cerevisiae) (UniProt P53131)
[4] = target: T3, Drs1 (Y2H bait, pAS2-1) (S. cerevisiae) (UniProt P32892)
T3 sequence: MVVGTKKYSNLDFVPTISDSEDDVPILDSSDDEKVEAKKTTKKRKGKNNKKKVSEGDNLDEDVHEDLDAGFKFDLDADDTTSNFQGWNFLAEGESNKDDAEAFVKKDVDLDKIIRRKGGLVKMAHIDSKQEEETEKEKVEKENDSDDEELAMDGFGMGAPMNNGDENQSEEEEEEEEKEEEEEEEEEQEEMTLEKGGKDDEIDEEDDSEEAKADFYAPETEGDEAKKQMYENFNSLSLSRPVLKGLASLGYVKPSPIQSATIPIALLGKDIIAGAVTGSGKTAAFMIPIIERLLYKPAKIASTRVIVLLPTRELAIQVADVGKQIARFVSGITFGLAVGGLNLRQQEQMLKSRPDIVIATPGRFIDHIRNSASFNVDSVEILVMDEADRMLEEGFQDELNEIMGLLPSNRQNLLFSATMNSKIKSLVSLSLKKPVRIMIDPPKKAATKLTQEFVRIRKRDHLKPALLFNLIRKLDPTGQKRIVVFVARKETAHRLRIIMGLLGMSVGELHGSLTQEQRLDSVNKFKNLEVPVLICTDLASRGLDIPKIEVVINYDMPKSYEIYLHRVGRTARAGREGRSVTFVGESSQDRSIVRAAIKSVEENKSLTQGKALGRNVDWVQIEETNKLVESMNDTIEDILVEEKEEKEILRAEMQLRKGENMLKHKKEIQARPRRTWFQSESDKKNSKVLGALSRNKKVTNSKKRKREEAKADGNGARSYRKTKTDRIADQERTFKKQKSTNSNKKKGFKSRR

[5] = target: Has1 (Y2H bait, pAS2-1) (S. cerevisiae) (UniProt Q03532)
[6] = target: T4, Nop13 (Y2H bait, pAS2-1) (S. cerevisiae) (UniProt P53883)
T4 sequence: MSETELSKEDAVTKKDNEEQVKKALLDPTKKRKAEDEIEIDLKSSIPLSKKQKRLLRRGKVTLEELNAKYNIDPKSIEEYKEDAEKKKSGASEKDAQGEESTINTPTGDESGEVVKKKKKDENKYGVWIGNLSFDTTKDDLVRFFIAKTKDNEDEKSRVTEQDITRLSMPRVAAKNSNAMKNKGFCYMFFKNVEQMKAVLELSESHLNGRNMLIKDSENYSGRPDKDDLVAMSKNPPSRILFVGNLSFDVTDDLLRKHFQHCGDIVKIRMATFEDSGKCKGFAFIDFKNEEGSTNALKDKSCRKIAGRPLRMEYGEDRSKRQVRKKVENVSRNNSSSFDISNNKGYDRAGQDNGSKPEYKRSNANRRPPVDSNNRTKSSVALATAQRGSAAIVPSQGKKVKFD

Measured: binding

B1: Nop4 RRM 1–2 (Y2H prey, pACT2) (domain or fragment, UniProt P37838 1-250)
chain: MEETIENVEVPSSNVSKQNDDGLDMKTLFVRSIPQDVTDEQLADFFSNFAPIKHAVVVKDTNKRSRGFGFVSFAVEDDTKEALAKARKTKFNGHILRVDIAKRRDRSKKTSEVVEKSTPESSEKITGQNNEDEDDADGEDSMLKGKPKLIIRNMPWSCRDPVKLKKIFGRYGTVVEATIPRKRDGKLCGFAFVTMKKISNCRIALENTKDLKIDGRKVAVDFAVQKNRWEDYKKAQPEMNDKDDNESGNE
no binding: all assays above
